According to patent US20120329784A1, “COMPOUNDS AND METHODS” (priority 2010, published 2012):
Where a name gives a salt, the structure may show the parent alone. Some of these results come from one statement about several compounds together.

Molecular target: T1, Full length human TNNI3K (hTNNI3K) (Homo sapiens, UniProt Q59H18)
T1 construct: His-MBP-TEV-Full length human TNNI3K (hTNNI3K); His (N); MBP (N); TEV cleavage site (N); made in house; host or cells: baculovirus expression system (printed 'Baculokinase system')
T1 sequence (Q59H18 1-835): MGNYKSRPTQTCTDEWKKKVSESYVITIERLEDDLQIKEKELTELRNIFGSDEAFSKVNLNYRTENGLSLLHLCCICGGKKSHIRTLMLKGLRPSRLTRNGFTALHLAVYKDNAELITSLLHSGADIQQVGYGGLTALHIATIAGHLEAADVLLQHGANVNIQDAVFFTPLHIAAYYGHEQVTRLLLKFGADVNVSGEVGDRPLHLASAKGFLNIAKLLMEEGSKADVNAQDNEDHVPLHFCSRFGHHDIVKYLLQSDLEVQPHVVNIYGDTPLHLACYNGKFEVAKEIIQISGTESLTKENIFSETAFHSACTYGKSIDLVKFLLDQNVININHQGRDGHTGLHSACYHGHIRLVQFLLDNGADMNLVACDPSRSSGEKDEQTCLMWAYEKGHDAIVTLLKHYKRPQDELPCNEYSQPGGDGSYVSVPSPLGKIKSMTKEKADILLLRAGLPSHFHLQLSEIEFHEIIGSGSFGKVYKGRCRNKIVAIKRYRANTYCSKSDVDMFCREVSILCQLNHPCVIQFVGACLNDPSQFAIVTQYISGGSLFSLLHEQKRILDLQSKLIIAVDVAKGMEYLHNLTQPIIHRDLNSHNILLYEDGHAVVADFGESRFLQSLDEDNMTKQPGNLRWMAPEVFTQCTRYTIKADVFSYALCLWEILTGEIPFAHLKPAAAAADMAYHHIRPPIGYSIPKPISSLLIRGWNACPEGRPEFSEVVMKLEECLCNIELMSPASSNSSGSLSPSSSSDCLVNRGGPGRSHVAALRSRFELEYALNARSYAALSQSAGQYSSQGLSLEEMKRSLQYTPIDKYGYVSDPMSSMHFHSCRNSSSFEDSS
Experiment: Fluorescent polarization assay of compound inhibition on hTNNI3K ATP binding (Biological Assay Method I)
Conditions: mean of a minimum of 2 experiments; displacement of fluorescent ligand from hTNNI3K ATP binding pocket; 60 min at rt

SMILES | pXC50
CNS(=O)(=O)c1cccc(Nc2cc(Nc3cccnc3)ncn2)c1 [Example 269, N-methyl-3-{[6-(3-pyridinylamino)-4-pyrimidinyl]amino}benzenesulfonamide] | ≥ 6.0
CNS(=O)(=O)c1cccc(Nc2cc(Nc3ccncc3)ncn2)c1 [Example 268, N-methyl-3-{[6-(4-pyridinylamino)-4-pyrimidinyl]amino}benzenesulfonamide trifluoroacetate] | ≥ 6.0
CNS(=O)(=O)c1ccc(OC)c(Nc2cc(Nc3ccc(Cl)cn3)ncn2)c1 [Example 286, 3-({6-[(5-chloro-2-pyridinyl)amino]-4-pyrimidinyl}amino)-N-methyl-4-(methyloxy)benzenesulfonamide trifluoroacetate] | ≥ 6.0
CNS(=O)(=O)c1cccc(Nc2cc(Nc3ccc(-n4ccnc4C)cc3)ncn2)c1 [Example 238, N-methyl-3-[(6-{[4-(2-methyl-1H-imidazol-1-yl)phenyl]amino}-4-pyrimidinyl)amino]benzenesulfonamide trifluoroacetate] | ≥ 6.0
CNS(=O)(=O)c1cccc(Nc2cc(Nc3cccc(C(F)(F)F)c3)ncn2)c1 [Example 58, N-methyl-3-[(6-{[3-(trifluoromethyl)phenyl]amino}-4-pyrimidinyl)amino]benzenesulfonamide trifluoroacetate] | ≥ 6.0
CNS(=O)(=O)c1ccc(SC)c(Nc2cc(Nc3cc(F)c(F)c(F)c3)ncn2)c1 [Example 167, N-methyl-4-methylsulfanyl-3-[6-(3,4,5-trifluoro-phenylamino)-pyrimidin-4-ylamino]-benzenesulfonamide trifluoroacetate] | ≥ 6.0
CNS(=O)(=O)c1cccc(Nc2cc(Nc3nc(C(C)C)cs3)ncn2)c1 [Example 283, N-methyl-3-[(6-{[4-(1-methylethyl)-1,3-thiazol-2-yl]amino}-4-pyrimidinyl)amino]benzenesulfonamide trifluoroacetate] | ≥ 6.0
CNS(=O)(=O)c1cccc(Nc2cc(Nc3cccc(S(=O)(=O)N(C)C)c3)ncn2)c1 [Example 66, 3-{[6-({3-[(dimethylamino)sulfonyl]phenyl}amino)-4-pyrimidinyl]amino}-N-methylbenzenesulfonamide trifluoroacetate] | ≥ 6.0
CNS(=O)(=O)c1ccc(SC)c(Nc2cc(Nc3ccc(C#N)c(Cl)c3)ncn2)c1 [Example 157, 3-[6-(3-chloro-4-cyano-phenylamino)-pyrimidin-4-ylamino]-N-methyl-4-methylsulfanyl-benzenesulfonamide trifluoroacetate] | ≥ 6.0
CNS(=O)(=O)c1ccc(OCC(F)(F)F)c(Nc2cc(Nc3ccc(Cl)c(C)n3)ncn2)c1 [Example 300, 3-({6-[(5-chloro-6-methyl-2-pyridinyl)amino]-4-pyrimidinyl}amino)-N-methyl-4-[(2,2,2-trifluoroethyl)oxy]benzenesulfonamide trifluoroacetate] | ≥ 6.0
CNS(=O)(=O)c1cccc(Nc2cc(Nc3cccc(OCC(=O)OC(C)C)c3)ncn2)c1 [Example 96, 1-methylethyl [(3-{[6-({3-[(methylamino)sulfonyl]phenyl}amino)-4-pyrimidinyl]amino}phenyl)oxy]acetate trifluoroacetate] | ≥ 6.0
CNS(=O)(=O)c1cccc(Nc2cc(Nc3cccc(-c4cccc(S(=O)(=O)NC)c4)c3)ncn2)c1 [Example 345, N-methyl-3′-{[6-({3-[(methylamino)sulfonyl]phenyl}amino)-4-pyrimidinyl]amino}-3-biphenylsulfonamide] | ≥ 6.0
CNS(=O)(=O)c1ccc(OC(C)C(F)(F)F)c(Nc2cc(Nc3ccc(Cl)cn3)ncn2)c1 (single isomer, unassigned) [Example 379, 3-({6-[(5-chloro-2-pyridinyl)amino]-4-pyrimidinyl}amino)-N-methyl-4-[(2,2,2-trifluoro-1-methylethyl)oxy]benzenesulfonamide] | ≥ 6.0
CNS(=O)(=O)c1cccc(Nc2cc(Nc3ccc(C(=O)N4CCN(C)CC4)cc3)ncn2)c1 [Example 354, N-methyl-3-{[6-({4-[(4-methyl-1-piperazinyl)carbonyl]phenyl}amino)-4-pyrimidinyl]amino}benzenesulfonamide] | ≥ 6.0
CNS(=O)(=O)c1ccc(OC)c(Nc2cc(Nc3ccccn3)ncn2)c1 [Example 285, N-methyl-4-(methyloxy)-3-{[6-(2-pyridinylamino)-4-pyrimidinyl]amino}benzenesulfonamide trifluoroacetate] | ≥ 6.0
CNS(=O)(=O)c1cccc(Nc2cc(Nc3cccc(NS(C)(=O)=O)c3)ncn2)c1 [Example 93, N-methyl-3-{[6-({3-[(methylsulfonyl)amino]phenyl}amino)-4-pyrimidinyl]amino}benzenesulfonamide] | ≥ 6.0
CNS(=O)(=O)c1ccc(S(C)(=O)=O)c(Nc2cc(Nc3ccc4c(c3)CCC4)ncn2)c1 [Example 196, 3-[6-(indan-5-ylamino)-pyrimidin-4-ylamino]-4-methanesulfonyl-N-methyl-benzenesulfonamide] | ≥ 6.0
CNS(=O)(=O)c1ccc(OCC(F)(F)F)c(Nc2cc(Nc3cc(C)cc(Br)n3)ncn2)c1 [Example 47, 3-[6-(6-bromo-4-methyl-pyridin-2-ylamino)-pyrimidin-4-ylamino]-N-methyl-4-(2,2,2-trifluoro-ethoxy)-benzenesulfonamide trifluoroacetate] | ≥ 6.0
CNS(=O)(=O)c1ccc2c(c1)N(c1cc(Nc3ccc(Cl)cc3)ncn1)CC2 [Example 205, 1-{6-[(4-chlorophenyl)amino]-4-pyrimidinyl}-N-methyl-2,3-dihydro-1H-indole-6-sulfonamide hydrochloride] | ≥ 6.0
CNS(=O)(=O)c1ccc(OCC(F)(F)F)c(Nc2cc(Nc3ccc(Br)c(C)n3)ncn2)c1.O=C(O)C(F)(F)F [Example 249, 3-({6-[(5-bromo-6-methyl-2-pyridinyl)amino]-4-pyrimidinyl}amino)-N-methyl-4-[(2,2,2-trifluoroethyl)oxy]benzenesulfonamide trifluoroacetate] | ≥ 6.0
CNS(=O)(=O)c1cccc(Nc2cc(Nc3ccc(C(=O)N4CCC(F)(F)CC4)cc3)ncn2)c1 [Example 366, 3-{[6-({4-[(4,4-difluoro-1-piperidinyl)carbonyl]phenyl}amino)-4-pyrimidinyl]amino}-N-methylbenzenesulfonamide] | ≥ 6.0
CNS(=O)(=O)c1cccc(Nc2cc(Nc3cccc(-c4ccc(C(N)=O)cc4)c3)ncn2)c1 [Example 335, 3′-{[6-({3-[(methylamino)sulfonyl]phenyl}amino)-4-pyrimidinyl]amino}-4-biphenylcarboxamide] | ≥ 6.0
CNS(=O)(=O)c1ccc(SC)c(Nc2cc(Nc3ccc4ncsc4c3)ncn2)c1 [Example 144, 3-[6-(benzothiazol-6-ylamino)-pyrimidin-4-ylamino]-N-methyl-4-methylsulfanyl-benzenesulfonamide trifluoroacetate] | ≥ 6.0
CNS(=O)(=O)c1cccc(Nc2cc(Nc3ncc(C)s3)ncn2)c1 [Example 276, N-methyl-3-({6-[(5-methyl-1,3-thiazol-2-yl)amino]-4-pyrimidinyl}amino)benzenesulfonamide] | ≥ 6.0
CNS(=O)(=O)c1cccc(Nc2cc(Nc3ccc(OC(F)F)cc3)ncn2)c1 [Example 230, 3-{[6-({4-[(difluoromethyl)oxy]phenyl}amino)-4-pyrimidinyl]amino}-N-methylbenzenesulfonamide trifluoroacetate] | ≥ 6.0
CNS(=O)(=O)c1ccc(OCC(F)(F)F)c(Nc2cc(Nc3ccc(OCC(F)(F)F)cc3)ncn2)c1 [Example 42, N-methyl-4-[(2,2,2-trifluoroethyl)oxy]-3-{[6-({4-[(2,2,2-trifluoroethyl)oxy]phenyl}amino)-4-pyrimidinyl]amino}benzenesulfonamide trifluoroacetate] | ≥ 6.0
CNS(=O)(=O)c1cccc(Nc2cc(Nc3cc(OC)cc(OC)c3)ncn2)c1 [Example 172, 3-[6-(3,5-dimethoxy-phenylamino)-pyrimidin-4-ylamino]-N-methyl-benzenesulfonamide trifluoroacetate] | ≥ 6.0
CNS(=O)(=O)c1cccc(Nc2cc(Nc3ccc4c(c3)OCO4)ncn2)c1 [Example 175, 3-[6-(benzo[1,3]dioxol-5-ylamino)-pyrimidin-4-ylamino]-N-methyl-benzenesulfonamide trifluoroacetate] | ≥ 6.0
CNS(=O)(=O)c1cccc(Nc2cc(Nc3ccc(NC(C)=O)cc3)ncn2)c1 [Example 71, N-(4-{[6-({3-[(methylamino)sulfonyl]phenyl}amino)-4-pyrimidinyl]amino}phenyl)acetamide trifluoroacetate] | ≥ 6.0
